The DeepSol protein solubility set

Test: soluble on expression in E. coli; label from the status in PepcDB or PDB records

Sequence | soluble on expression in E. coli
AIATESRISFEDVAVDFSWDQWQLLSPTQKSLYRDVMLENCSSLVFLGNQTTVWLLGFEHLRKSYTG | soluble
ASARAPPGLARGCLGRRGPQVQQLDMENQRSSPLSFPSVPQEETLRQAPAGLPRETLFQSRVLPPKEIPSLSPTIPRQGSLPQTSSAPKQETSGRMPHVLQKGPSLLCSAASEQETSLQGPLASQEGTQYPPPAAAEQEVSLLSHSPHHQEAPVHSPEAPEKDPLTLSPTVPETDMDPLLQSPVSQKDTPFQISSAVQKEQPLPTAEITRLAVWAAVQAVERKLEAQAMRLLTLEGRTGTNEKKIADCEKTAVEFANHLESKWVVLGTLLQEYGLLQRRLENMENLLKNRNFWILRLPPGSNGEVPKVPVTFDDVAVHFSEQEWGNLSEWQKELYKNVMRGNYESLVSMDYAISKPDLMSQMERGERPTMQEQEDSEEGETPTDPSAAHDGIVIKIEVQTNDEGSESLETPEPLMGQVEEHGFQDSELGDPCGEQPDLDMQEPENTLEESTEGSSEFSELKQMLVQQRNCTGECWAGTAGEGLP | soluble
GPLGSMDTETEFDRILLFEQIRQDAENTYKSNPLDADNLTRWGGVLLELSQFHSISDAKQMIQEAITKFEEALLIDPKKDEAVWCIGNAYTSFAFLTPDETEAKHNFDLATQFFQQAVDEQPDNTHYLKSLEMTAKAPQLHAEAYKQGLGGSHHHHHH | soluble
GSHMRIVVKTLMGRTIILEVEPSDTIENVKAKIQDKEGIPPDQQRLIFAGKQLEDGRTLSDYNIHNHSALYLLLKLRGGGGGGSG | soluble
MAHHHHHHMAGRSYVSPKDERAFVAILAKDPECSQCFECGAPSPQWCDVMHGTFICLNCSGQHRGLGVHLSFVRSSTMDGWVDWKPEKLRQMELGGNRRARLYFEEHKVPNTPLKARYESLPALRYADMLESEALGKPFSEASWQPPAWYTRLQAAASLAGPFPTSSYPQTDLNRFAGVGSNGQPHVMSDNSEGDREWYSALYSGWSAVSQKTAELAQHATKAVQGADVEGMRSSLAQTWAGVSATVSAYAADLQQRIAEGGGRDKDDGLDRMLQNAREAQTESSVDNRAAGQTRYGHIEGSRGNGPGSRIAVQARPVGAASPESSTVYQGRVLRQSASESSPTESVTASASSGWDSPSRASPSAALPQTQPTSSRPVNPLGGDAGGGGASPPASQSTKKDEWSWDNENF | not soluble
MAVAPARARSDYDYLIKLLLIGDSGVGKSCLLLRFSDDTFTTSFITTIGIDFKIRTVELDGKRIKLQIWDTAGQERFRTITTAYYRGAMGILLVYDVTDESSFNNIRNWMKNIEQHASDSVNKILVGNKADMDESKRAVPTSKGQALADEYGIKFFETSAKTNQNVEQVFLSIAKDIKQRLTESDTKAEPQGIKITKQDANKASSSSTNEKSACCSYV | soluble
MCGGAVISDYIAPEKIARSSGKSSWRSNGVFDCSIYDFDGNFDELESDEPFVFSSTHKHHASGSASDGKKKQSSRYKGIRRRPWGRWAAEIRDPIKGVRVWLGTFNTAEEAARAYDLEAKRIRGAKAKLNFPNESSGKRKAKAKTVQQVEENHEADLDVAVVSSAPSSSCLDFLWEENNPDTLLIDTQWLEDIIMGDANKKHEPNDSEEANNVDASLLSEELLAFENQTEYFSQMPFTEGNCDSSTSLSSLFDGGNDMGLWS | not soluble
MDPAASSCMRSLQPPAPVWGCLRNPHSEGNGASGLPHYPPTPFSFHQKPDFLATATAAYPDFSASCLAATPHSLPQEEHIFTEQHPAFPQSPNWHFPVSDARRRPNSGPAGGSKEMGTSSLGLVDTTGGPGDDYGVLGSTANETEKKSSRRRKESSDNQENRGKPEGSSKARKERTAFTKEQLRELEAEFAHHNYLTRLRRYEIAVNLDLSERQVKVWFQNRRMKWKRVKGGQPISPNGQDPEDGDSTASPSSE | soluble
MESIYLQKHLGACLTQGLAEVARVRPVDPIEYLALWIYKYKENVTMEQLRQKEMAKLERERELALMEQEMMERLKAEELLLQQQQLALQLELEMQEKERQRIQELQRAQEQLGKEMRMNMENLVRNEDILHSEEATLDSGKTLAEISDRYGAPNLSRVEELDEPMFSDIALNIDQDL | not soluble
MFKFNEDEENLKCSFCGKDQDQVKKLVAGSGVYICNECIELCSEIVEEELAQNTSEAMTELPTPKEIMDHLNEYVIGQEKAKKSLAVAVYNHYKRIQQLGPKEDDVELQKSNIALIGPTGSGKTLLAQTLAKTLNVPFAIADATSLTEAGYVGDDVENILLRLIQAADFDIDKAEKGIIYVDEIDKIARKSENTSITRDVSGEGVQQALLKILEGTTASVPPQGGRKHPNQEMIQIDTTNILFILGGAFDGIEEVIKRRLGEKVIGFSSNEADKYDEQALLAQIRPEDLQAYGLIPEFIGRVPIVANLETLDVTALKNILTQPKNALVKQYTKMLELDDVDLEFTEEALSAISEKAIERKTGARGLRSIIEESLIDIMFDVPSNENVTKVVITAQTINEETEPELYDAEGNLINNSKTSA | not soluble
MGDAEAGKKIFVQKCAQCHTVEKGGKHKTGPNLWGLFGRKTGQAPGFSYTDANKNKGVIWSEETLMEYLENPKKYIPGTKMIFAGIKKKSEREDLIKYLKQATSS | soluble
MGHHHHHHSHMNRHFSKEDIYAANRHMKKCSSSLAIREMQIKTTMRYHLTPVRMVIIRKSGNDRCWRGCGEIGTLLHCWWDCKLVQPLWKTVWRFLRDLQLEIPFDPAIPLLGIYPKDYKSCCYKDTCTRMFIAALFTIAKTWNQPKYPTTIG | not soluble
MGHHHHHHSHMQLQEEKVSEDDMDQDFLHLFKIVAGEGKEIGVYELQRLLNRMAIKFKSFKTKGFGLDACRCMINLMDKDGSGKLGLLEFKILWKKLKKWMDIFRECDQDHSGTLNSYEMRLVIEKAGIKLNNKVMQVLVARYADDDLIIDFDSFISCFLRLKTMFTFFLTMDPKNTGHICLSLEQWLQMTMWG | not soluble
MGQGSGDDGVPPAPFSSAAAAAHSPPHSPLSVGVSSASSATSSSSTPPSSTSPAGVSASGARNVETDWKQSGDENLAELCIFHVPDKSVSLPNPKRAECTLPMNLILKSSSKNRKKSSIWSSDHIPRGVRFGPLVGEIRLVDVDTALVCPAEASMAGGGPAQEDVPFDEAPEEWKIYSPSGGRLNKTICVKDDARSNWMKYVAAAEEEDFQNLVAAQIGNDIYFYTVKKIEANTELSFWFSRDYARKLNYSTRPYVRVRRPATQLIPSAPPASASTAIASLAETIVAIDYSVKKLIESPIDTLSTDASSASDEEMIDVEEQESCTRPVAEVTRPNVIQNPVVRPVATKVNNFPGIPVRLGNFYASPLVDFKEFMRKSLQLKLVDTSMFVSPVAQTTAAITATGGRSGQPIDVQPVLAATAGAHFGNYAAIYGSQDFQHELSKPLYTSASPAFGGGGGMGGGFGMGGSAHTSSFHQLPFVNHSSSSHNDSSFNGVPNYVQQQENGKTRYACKDCNKTFGQLSNLKVHVRTHTGERPFKCEICTKEFTQLAHLQKHHLVHTGERPHRCDICDKRFSSTSNLKTHLRLHNGQKPYTCDVCDAKFTQYVHLRLHKRLHANERPYSCGTCGKKYISPSGLRTHWKTTTCKEEDMKDSMRDDLMDIKGEIDEGSMSGSGYGNLGIFENTLNSELKRPLMPIETIYSKYNLPNASLLGQGPSGMQEQQAPPPTSQQQQHMMYGNTMGHMGQGSHLQGPPPPPQHFQMDHSGMQNGGGIPHQHQLIQGGPSSGSGQQQHPQHNGIHRLPDLKNPLLPSLGLPHYP | not soluble
MGSDKIHHHHHHMPIDITSFDFTACGEEMYRLLAELFPLCRSITGDGVRETLRIIQGQIPLRLVEVPTGTQVFDWTVPREWAIRDAHISDSNGKRIVDFRSNNLHVVGYSVPVDRTISLAELQNHLYSLETMPDAIPYVTSYYQERWGFCLTHRQRSGLPDGEYRVFIDSELKDGHLTYGELIIPGETDREIFLSTYVCHPSMANNELSGPVVATMLARWIMSRPRRFTYRIVFVPETIGSLTYLSRNLDRMKESIVAGFNLTCIGDDRAYSFLPSRSGSTLADRAALNILGHKHPDFIRYSFLDRGSDERQYCSPGVDLPVVSVMRSKYREYPEYHTSLDNLDLVTPAGLQGGFSAVRDCLELLENNRVYRTTCLGEPQLGRRGLFPTVGTRDSHSQVADMLNVLAYADGTNDLIDISNTIQAPVGRLYPIIGKLAAAGLLVEQAADLSSRDVVEAGV | not soluble
MGSDKIHHHHHHMRRVVFNQKGGVGKSTIVCNLAAISASEGLRTLVVDLDAQGNSTQYLMGAQAAEATPTAAHFFESSLTYSFKPVDLSEFIHTTPFENLDVMPAHPDLDSLHSKLESRYKIYKLRDALIELESVYDAIYIDTPPALNFYTRSALIAVERCLIPFDCDDFSRRALYTLLDNVKEIQQDHNEALQVEGIVINQFQPRASLPVKLVEELVSEGLPVLASRLSSSVKIRESHQHATPMIHLDPRHKLSQEYLALHTELAG | not soluble
MGSDKIHHHHHHMRSDAIKKGHLRAPNRSLLRACGLKDEDFDKPFIGVANSYIDIIPGHYFLNDYAKIIKDEIRKNGCVPFEFNTIGVDDGIAMGHEGMLYSLPSRELIANSIETVMNAHQLDALICIPNCDKITPGMLMGALRVNVPTIFVSGGPMASGVTKKGEKISLSSVFEAVGAYESKKISEEEFKDIECSACPSGGSCSGMFTANSMNTLCEAMGIALEGNGTILALSKEREELLRKAARRICEIALDERFKIRNIITQKAVRNAMVVDMAMGGSSNTVLHMLAISREAGVALDIKDLNFISSKVAHIAKIAPSLNSVYMDDIHKAGGVSAVMAEISSRQGHILELDALTITGESLKERLKNAKIKDENIIRKVDNAYSKVGGLAILFGNLAKQGCVIKTAGIIGERKFKGKAVCFNSQDEAIKGIIKGKVQKGNVCVIRYEGPKGGPGMQEMLSPTSLLMGMGLGADVALITDGRFSGATRGLSVGHISPEAAEGGLIGLLKDGDEIEIDVDAYTIHANVSEEEIAKRKKEFALPQKEVSSRWLRMYQKLVSNASKGAVLDME | not soluble
MHHHHHHSSGVDLGTENLYFQSMELAVGIDLGTTYSCVGVFQQGRVEILANDQGNRTTPSYVAFTDTERLVGDAAKSQAALNPHNTVFDAKRLIGRKFADTTVQSDMKHWPFRVVSEGGKPKVRVCYRGEDKTFYPEEISSMVLSKMKETAEAYLGQPVKHAVITVPAYFNDSQRQATKDAGAIAGLNVLRIINEPTAAAIAYGLDRRGAGERNVLIFDLGGGTFDVSVLSIDAGVFEVKATAGDTHLGGEDFDNRLVNHFMEEFRRKHGKDLSGNKRALRRLRTACERAKRTLSSSTQATLEIDSLFEGVDFYTSITRARFEELCSDLFRSTLEPVEKALRDAKLDKAQIHDVVLVGGSTRIPKVQKLLQDFFNGKELNKSINPDEAVAYGAAVQAAVLMGD | soluble
MLSSSAKIVKPNGEKQDELESGISQALLQLEMNSDLRVQLWELNITAAKEMEVGGGQKAIIIFVLLPRLKSFQKIQVGLVRELEKKFSMKHVVFIAQRRILPESTRKKTVWKISKSATEAATQRHP | not soluble
